Measured values taken from PMC7470945, “DNA backbone interactions impact the sequence specificity of DNA sulfur-binding domains: revelations from structural analyses”.

How the values were obtained:
[1] = target: T1, SBDSpr (SBD of SprMcrA) (Streptomyces pristinaespiralis) (UniProt A0A0M4DML1); experiment: fluorescence polarization; conditions: FP: 20 mM Tris-HCl pH 8.0, 50 mM NaCl, 5% glycerol, 1 mM DTT, 5 nM probe, room temperature, recombinant protein, residues 1-165, protein details: N-terminal 6xHis (pET28a); for binding result: label: 5'-FAM on one strand
T1 sequence (looked up): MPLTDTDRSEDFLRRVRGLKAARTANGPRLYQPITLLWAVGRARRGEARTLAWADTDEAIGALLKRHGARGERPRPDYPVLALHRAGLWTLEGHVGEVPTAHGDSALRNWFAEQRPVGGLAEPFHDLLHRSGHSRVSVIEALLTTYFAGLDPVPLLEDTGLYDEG

[2] = target: T1, SBDSpr (SBD of SprMcrA) (Streptomyces pristinaespiralis); experiment: X-ray crystallography; conditions: recombinant protein, residues 1-165, protein details: N-terminal 6xHis (pET28a)
[3] = target: T2, SBDSco E156R/D157R (Streptomyces coelicolor) (UniProt Q9L0M9); experiment: fluorescence polarization; conditions: RP phosphorothioate between G4 and G5 of strand 1; FP: 20 mM Tris-HCl pH 8.0, 50 mM NaCl, 5% glycerol, 1 mM DTT, 5 nM probe, room temperature; recombinant protein; protein details: 6xHis; label: 5'-FAM on one strand (FP)
T2 sequence (looked up, limits assumed): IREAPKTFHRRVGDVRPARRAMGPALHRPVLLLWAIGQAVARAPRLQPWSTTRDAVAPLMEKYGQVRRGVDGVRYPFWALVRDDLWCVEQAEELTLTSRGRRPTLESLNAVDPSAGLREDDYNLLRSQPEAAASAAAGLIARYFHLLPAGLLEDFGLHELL

[4] = target: T3, SBDSpr Y78A (Streptomyces pristinaespiralis) (UniProt A0A0M4DML1); experiment: fluorescence polarization; conditions: RP phosphorothioate between G4 and G5 of strand 1; FP: 20 mM Tris-HCl pH 8.0, 50 mM NaCl, 5% glycerol, 1 mM DTT, 5 nM probe, room temperature; recombinant protein; residues 1-165; protein details: 6xHis; label: 5'-FAM on one strand (FP)
T3 sequence (looked up): T1 sequence (looked up) with Y78A

[5] = target: T4, SBDSpr P79A (Streptomyces pristinaespiralis) (UniProt A0A0M4DML1); experiment: fluorescence polarization; conditions: RP phosphorothioate between G4 and G5 of strand 1; FP: 20 mM Tris-HCl pH 8.0, 50 mM NaCl, 5% glycerol, 1 mM DTT, 5 nM probe, room temperature; recombinant protein; residues 1-165; protein details: 6xHis; label: 5'-FAM on one strand (FP)
T4 sequence (looked up): T1 sequence (looked up) with P79A

[6] = target: T5, SBDSco (SBD of ScoMcrA) (Streptomyces coelicolor) (UniProt Q9L0M9); experiment: fluorescence polarization; conditions: RP phosphorothioate between G4 and G5 of strand 1; FP: 20 mM Tris-HCl pH 8.0, 50 mM NaCl, 5% glycerol, 1 mM DTT, 5 nM probe, room temperature; recombinant protein; protein details: N-terminal 6xHis (pET28a); label: 5'-FAM on one strand (FP)
T5 sequence (looked up, limits assumed): T2 sequence (looked up, limits assumed) with R67E, R68D

[7] = target: T6, SBDSpr Q32A (Streptomyces pristinaespiralis) (UniProt A0A0M4DML1); experiment: fluorescence polarization; conditions: RP phosphorothioate between G4 and G5 of strand 1; FP: 20 mM Tris-HCl pH 8.0, 50 mM NaCl, 5% glycerol, 1 mM DTT, 5 nM probe, room temperature; recombinant protein; residues 1-165; protein details: 6xHis; label: 5'-FAM on one strand (FP)
T6 sequence (looked up): T1 sequence (looked up) with Q32A

[8] = target: T7, SBDSco E156K (Streptomyces coelicolor) (UniProt Q9L0M9); experiment: fluorescence polarization; conditions: RP phosphorothioate between G4 and G5 of strand 1; FP: 20 mM Tris-HCl pH 8.0, 50 mM NaCl, 5% glycerol, 1 mM DTT, 5 nM probe, room temperature; recombinant protein; protein details: 6xHis; label: 5'-FAM on one strand (FP)
T7 sequence (looked up, limits assumed): T2 sequence (looked up, limits assumed) with R67K, R68D

[9] = target: T8, SBDSpr R73A (Streptomyces pristinaespiralis) (UniProt A0A0M4DML1); experiment: fluorescence polarization; conditions: RP phosphorothioate between G4 and G5 of strand 1; FP: 20 mM Tris-HCl pH 8.0, 50 mM NaCl, 5% glycerol, 1 mM DTT, 5 nM probe, room temperature; recombinant protein; residues 1-165; protein details: 6xHis; label: 5'-FAM on one strand (FP)
T8 sequence (looked up): T1 sequence (looked up) with R73A

[10] = target: T9, SBDSpr H102A (Streptomyces pristinaespiralis) (UniProt A0A0M4DML1); experiment: fluorescence polarization; conditions: RP phosphorothioate between G4 and G5 of strand 1; FP: 20 mM Tris-HCl pH 8.0, 50 mM NaCl, 5% glycerol, 1 mM DTT, 5 nM probe, room temperature; recombinant protein; residues 1-165; protein details: 6xHis; label: 5'-FAM on one strand (FP)
T9 sequence (looked up): T1 sequence (looked up) with H102A

[11] = target: T10, SBDSpr R85A (Streptomyces pristinaespiralis) (UniProt A0A0M4DML1); experiment: fluorescence polarization; conditions: RP phosphorothioate between G4 and G5 of strand 1; FP: 20 mM Tris-HCl pH 8.0, 50 mM NaCl, 5% glycerol, 1 mM DTT, 5 nM probe, room temperature; recombinant protein; residues 1-165; protein details: 6xHis; label: 5'-FAM on one strand (FP)
T10 sequence (looked up): T1 sequence (looked up) with R85A

[12] = target: T11, SBDSpr D104A (Streptomyces pristinaespiralis) (UniProt A0A0M4DML1); experiment: fluorescence polarization; conditions: RP phosphorothioate between G4 and G5 of strand 1; FP: 20 mM Tris-HCl pH 8.0, 50 mM NaCl, 5% glycerol, 1 mM DTT, 5 nM probe, room temperature; recombinant protein; residues 1-165; protein details: 6xHis; label: 5'-FAM on one strand (FP)
T11 sequence (looked up): T1 sequence (looked up) with D104A

[13] = target: T12, SBDSpr Y31A (Streptomyces pristinaespiralis) (UniProt A0A0M4DML1); experiment: fluorescence polarization; conditions: RP phosphorothioate between G4 and G5 of strand 1; FP: 20 mM Tris-HCl pH 8.0, 50 mM NaCl, 5% glycerol, 1 mM DTT, 5 nM probe, room temperature; recombinant protein; residues 1-165; protein details: 6xHis; label: 5'-FAM on one strand (FP)
T12 sequence (looked up): T1 sequence (looked up) with Y31A

[14] = target: T13, SBDSco E156Q (Streptomyces coelicolor) (UniProt Q9L0M9); experiment: fluorescence polarization; conditions: RP phosphorothioate between G4 and G5 of strand 1; FP: 20 mM Tris-HCl pH 8.0, 50 mM NaCl, 5% glycerol, 1 mM DTT, 5 nM probe, room temperature; recombinant protein; protein details: 6xHis; label: 5'-FAM on one strand (FP)
T13 sequence (looked up, limits assumed): T2 sequence (looked up, limits assumed) with R67Q, R68D

[15] = target: T14, SBDSco E156R (Streptomyces coelicolor) (UniProt Q9L0M9); experiment: fluorescence polarization; conditions: RP phosphorothioate between G4 and G5 of strand 1; FP: 20 mM Tris-HCl pH 8.0, 50 mM NaCl, 5% glycerol, 1 mM DTT, 5 nM probe, room temperature; recombinant protein; protein details: 6xHis; label: 5'-FAM on one strand (FP)
T14 sequence (looked up, limits assumed): T2 sequence (looked up, limits assumed) with R68D

[16] = target: T15, SBDSpr G103A (Streptomyces pristinaespiralis) (UniProt A0A0M4DML1); experiment: fluorescence polarization; conditions: RP phosphorothioate between G4 and G5 of strand 1; FP: 20 mM Tris-HCl pH 8.0, 50 mM NaCl, 5% glycerol, 1 mM DTT, 5 nM probe, room temperature; recombinant protein; residues 1-165; protein details: 6xHis; label: 5'-FAM on one strand (FP)
T15 sequence (looked up): T1 sequence (looked up) with G103A

[17] = target: T16, SBDSco E156D (Streptomyces coelicolor) (UniProt Q9L0M9); experiment: fluorescence polarization; conditions: RP phosphorothioate between G4 and G5 of strand 1; FP: 20 mM Tris-HCl pH 8.0, 50 mM NaCl, 5% glycerol, 1 mM DTT, 5 nM probe, room temperature; recombinant protein; protein details: 6xHis; label: 5'-FAM on one strand (FP)
T16 sequence (looked up, limits assumed): T2 sequence (looked up, limits assumed) with R67D, R68D

[18] = target: T17, SBDSco E156L (Streptomyces coelicolor) (UniProt Q9L0M9); experiment: fluorescence polarization; conditions: RP phosphorothioate between G4 and G5 of strand 1; FP: 20 mM Tris-HCl pH 8.0, 50 mM NaCl, 5% glycerol, 1 mM DTT, 5 nM probe, room temperature; recombinant protein; protein details: 6xHis; label: 5'-FAM on one strand (FP)
T17 sequence (looked up, limits assumed): T2 sequence (looked up, limits assumed) with R67L, R68D

[19] = RP phosphorothioate between G4 and G5 of strand 1, label: 5'-FAM on one strand (FP)

“CACGTTCGCC (double strand) [PT-GTTC-10 RP (hemi-PT)]”: no binding ([1]; RP phosphorothioate between G4 and T5 of strand 1).

“CACGTTCGCC (double strand) [PT-GTTC-10 SP (hemi-PT)]”: no binding ([1]; SP phosphorothioate between G4 and T5 of strand 1).

“GATGATCC (double strand) [PT-GATC-8 RP (hemi-PT)]”: binds ([2]; RP phosphorothioate between G4 and A5 of strand 1).

“GGCGAACGTG (double strand) [PT-GAAC-10 SP (hemi-PT)]”: no binding ([1]; SP phosphorothioate between G4 and A5 of strand 1).

“GGCGGCCC (double strand) [PT-GGCC SP (hemi-PT)]”: no binding ([1]; SP phosphorothioate between G4 and G5 of strand 1).

“GGCGGCCC (double strand) [PT-GGCC-8 RP (hemi-PT)]” showed a Kd [3] of 0.123 µM, a Kd [4] of over 4.48 µM and a Kd [5] of 0.067 µM. It also gave a Kd [6] of 0.102 µM, a Kd [7] of 0.279 µM and a Kd [8] of 0.13 µM. It also gave a Kd [9] of over 1.25 µM, a Kd [10] of over 1.86 µM and a Kd [11] of 0.031 µM. It also gave a Kd [12] of 0.144 µM, a Kd [13] of over 3.16 µM and a Kd [14] of 0.137 µM. The Kd [1, 19] was 0.0056 µM, the Kd [15] was 0.133 µM and the Kd [16] was over 9 µM. The Kd [17] was 0.112 µM, the Kd [18] was 0.11 µM and the binding result [2, 19] was “binds”.

Changes are numbered by the printed parent chain. For some assays here: Negatives hold for the conditions tested. Where a protein sequence is shown, tags need not be part of it. Construct, isoform or probe ends are uncertain for at least one entry.
